From publication PMC10163288
The other results are listed elsewhere or left out.

B1: il10ra_site1_normal_mot_HHH_b1_02062_000000185_0001_1_20_H_._HHH_b2_01431_0001_0000400048_0000001_0_af2pred_0001 (protein)
chain: SSSSEEAYKLSREAAELLADGNPEEALRLLEEAEEIAEEKGNLAILHALEFLYEHAKRLLESSSS
B2: il10ra_site1_normal_mot_HHH_b1_05185_000000011_0001_22_39_H_._HHH_b2_07609_af2_0001_0000100009_0000001_0_af2pred_0001 (protein)
chain: SSSSNELAKRAARFLVKAAKQLEDPEKVRLALRIALHAAKEANDEELQEEIERLLEELEKSSSSS
B3: il10ra_site1_sap_18_mot_HHH_b2_03913_af2_000000094_0001_1_19_H_._HHH_b2_01317_0001_0000200014_0000001_0_0001 (protein)
chain: SSSSSSDLEELLEELEELVEEGDSERALRLAIELIRLAFQRRDPEILRAVWELVKRLDSSSSSSS
B4: il10ra_site1_sap_23_mot_HHH_b2_03220_af2_000000223_0001_23_40_H_._HHH_b1_03860_0001_0000400043_0000001_0_0001_af2pred_0001 (protein)
chain: SSSSDAEEEVEELLKELEELVKRNDEEERVEVAFLIARLIQELGDPELAEELSRILVEFLQSSSS
B5: il10ra_site1_normal_mot_HHH_b2_01235_000000294_0001_1_18_H_._HHH_b1_05611_0001_0000600040_0000001_0_af2pred_0001 (protein)
chain: SSSSDVTERVLELLREALKLLKDGNPEEAREVLEEAEELAEEGNDELLRHLIEFAQEEIDSSSSS
B6: il10ra_site1_sap_8_mot_HHH_b1_07527_000000076_0001_1_15_H_._HHH_b2_05696_0001_0000500030_0000002_0_0001 (protein)
chain: SSDRAARYLLRQATRAARLAIENNDPERAEHAVENLRELAEQHNDEEAKEIAEELREQVEELKSS
B7: il10ra_site1_sap_23_mot_3fe176d385def974ec4a624ed76b8be1_0001_af2_000000291_0001_1_12_H_._HHH_b1_01093_0001_0000300041_0000002_0_0001 (protein)
chain: SSSSSSDEEEVEELLEEAKEIEDREELVEVLFRALEIAIQAQDPELLRLVWKVFKKLVSSSSSSS
B8: il10ra_site1_normal_mot_HHH_b2_02354_af2_000000157_0001_40_56_H_._HHH_b1_03315_af2_0001_0000100009_0000002_0 (protein)
chain: SSSSREEVSQLIEEILRLIKEGDEEEARELLEEAKRIAEELGDENAKFILESLEKALEQLFSSSS
B9: il10ra_site1_normal_mot_HHH_b2_07145_000000158_0001_24_40_H_._HHH_b2_07531_0001_0000200038_0000002_0 (protein)
chain: SSSSEEFFEKIKRIIEEAQELFEEGNEEEAERVLEEAAKEAKELNNFAALWSLEHLLRALSSSSS
B10: il10ra_site1_normal_mot_HHH_b2_06767_000000020_0001_41_56_H_._HHH_b2_06012_0001_0000400029_0000003_0_af2pred_0001 (protein)
chain: SSSSSHHEAAKLLLLVARAADEGDEELLEELEKELRELLKKLDDEKARLAVRFALWLIEALSSSS
B11: il10ra_site1_normal_mot_HHH_b1_05326_000000242_0001_1_20_H_._HHH_b2_05586_af2_0001_0000300014_0000001_0 (protein)
chain: SSSSSNEEALRLSVHAFRALLRGNPEEAQELLEEALEIAEKAGNERLARQIEELLKAVESNSSSS
B12: il10ra_site1_normal_mot_HHH_b2_02337_000000026_0001_38_52_H_._HHH_b2_07301_0001_0000200008_0000001_0 (protein)
chain: SSSSDRLEELLEELERALEEGDQEEFIELAQEVSRLAMELGDQEVLKEVWELVEEFRKLLSSSSS
B13: il10ra_site1_normal_mot_HHH_b1_01707_000000240_0001_1_17_H_._HHH_b1_05707_0001_0000100003_0000001_0_af2pred_0001 (protein)
chain: SSSSDSEEEAAKALLEAVKVAERLGDEELARLVLRLAERIVRLAGDEEVLEELEKLKEELSSSSS
B14: il10ra_site1_normal_mot_HHH_b2_02736_000000092_0001_22_38_H_._HHH_b1_04037_0001_0000200022_0000001_0 (protein)
chain: SSSSSEEHQELYELLREAIELRAEGNPEEAREVLEEAEELAREAGNENFEVQLRFLQREIDSSSS
B15: il10ra_site1_sap_20_mot_HHH_b2_00622_af2_000000153_0001_40_57_H_._HHH_b2_07209_0001_0000700039_0000002_0_0001 (protein)
chain: SSSSSDAAEESIRFMLKAARQLEDPEAARLAIRFAAALARDVNNEELLEEAEKLLEELRSSSSSS
B16: il10ra_site1_sap_23_mot_HHH_b2_04681_000000155_0001_43_57_H_._HHH_b2_02079_0001_0000500024_0000001_0_0001_af2pred_0001 (protein)
chain: SSSSDEEEQIIEEALRLAEERGDRETFLRLEASLKLARLANDPRALRALARLAERVLEELNSSSS
B17: il10ra_site1_normal_mot_HHH_b2_00984_000000042_0001_1_20_H_._046144532e059992a4c97ca66cd47cac_0001_0001_0000100001_0000001_0 (protein)
chain: DERLEEILEELKKSPDPEVREVVELLERLIEELGDPKKALQAAVRILLERGNAELLQILWEIIKK
B18: il10ra_site1_normal_mot_HHH_b1_06789_af2_000000041_0001_1_20_H_._HHH_b1_01475_0001_0000300012_0000001_0 (protein)
chain: SSSSSSDVEEEAEELLEKLEKEGDRAAVFLLEQVLEALRLAGDPKARRILENLIRILEQSSSSSS

Each binder was assayed against il10ra, Q13651 (assay: yeast display titration).

Binder	apparent Kd
B1	inactive: no binding seen
B2	inactive: > 959 nM
B3	inactive: no binding seen
B4	inactive: no binding seen
B5	inactive: no binding seen
B6	inactive: no binding seen
B7	inactive: > 1500 nM
B8	inactive: no binding seen
B9	inactive: no binding seen
B10	inactive: no binding seen
B11	inactive: no binding seen
B12	inactive: no binding seen
B13	inactive: no binding seen
B14	inactive: no binding seen
B15	inactive: no binding seen
B16	inactive: no binding seen
B17	inactive: no binding seen
B18	inactive: no binding seen
